{"source": "PubChem BioAssay AID1259307 (Sanger Institute, 2017)", "screen": "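Identify kinases needed for SW620 growth or enhancing BYL719, cetuximab or trametinib effects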 (primary screen)", "system": "SW620 colorectal cancer cells", "reagent": "siRNA pool against human genes", "challenge": "anchor drugs BYL719 at 1 µM, cetuximab at 5 µg/ml or trametinib at 10 nM, each beside a DMSO vehicle arm", "measured": "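Per-well viability versus non-targeting control pool, replicate-averaged, robust z-score from controls; synergy scores for BYL719 1 µM, cetuximab 5 µg/ml, trametinib 10 nM against DMSO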", "reading the numbers": "viability robust z-score, no drug: higher = more viable cells", "hit rule": "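a knock-down counts as lethal alone if its drug-free robust viability z-score is lower than -3, regardless of synergy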", "calls": "active = essential (lethal alone); inactive = no change alone", "note": "In all, the deposit lists 794 reagents; this is a random part of them. Of all reagents, 15 (1.9%) are marked active. 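Calls reflect lethality without any drug; synergy scores did not enter the calls.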 Not all columns of the deposit are shown. Not stated in the record: the amount of reagent, the time to read-out."}
{"target gene": "ALK (ALK receptor tyrosine kinase)", "viability robust z-score, no drug": 0.473, "activity call": "inactive"}
{"target gene": "ITPKC (inositol-trisphosphate 3-kinase C)", "viability robust z-score, no drug": 0.736, "activity call": "inactive"}
{"target gene": "PSKH1 (protein serine kinase H1)", "viability robust z-score, no drug": 0.736, "activity call": "inactive"}
{"target gene": "CDK12 (cyclin dependent kinase 12)", "viability robust z-score, no drug": 0.335, "activity call": "inactive"}
{"target gene": "MYO3B (myosin IIIB)", "viability robust z-score, no drug": 0.736, "activity call": "inactive"}
{"target gene": "PAK6 (p21 (RAC1) activated kinase 6)", "viability robust z-score, no drug": -0.707, "activity call": "inactive"}
{"target gene": "CAMK2B (calcium/calmodulin dependent protein kinase II beta)", "viability robust z-score, no drug": 0.0304, "activity call": "inactive"}
{"target gene": "MARK1 (microtubule affinity regulating kinase 1)", "viability robust z-score, no drug": 0.736, "activity call": "inactive"}
{"target gene": "HIPK4 (homeodomain interacting protein kinase 4)", "viability robust z-score, no drug": 0.736, "activity call": "inactive"}
{"target gene": "PTEN (phosphatase and tensin homolog)", "viability robust z-score, no drug": 0.736, "activity call": "inactive"}
{"target gene": "GOLGA5 (golgin A5)", "viability robust z-score, no drug": 0.0958, "activity call": "inactive"}
{"target gene": "PLK3 (polo like kinase 3)", "viability robust z-score, no drug": -1.68, "activity call": "inactive"}
{"target gene": "CLK1 (CDC like kinase 1)", "viability robust z-score, no drug": 0.736, "activity call": "inactive"}
{"target gene": "TYRO3 (TYRO3 protein tyrosine kinase)", "viability robust z-score, no drug": 0.0133, "activity call": "inactive"}
{"target gene": "RBKS (ribokinase)", "viability robust z-score, no drug": 0.736, "activity call": "inactive"}
{"target gene": "MAP3K11 (mitogen-activated protein kinase kinase kinase 11)", "viability robust z-score, no drug": 0.736, "activity call": "inactive"}
{"target gene": "STK32C (serine/threonine kinase 32C)", "viability robust z-score, no drug": 0.736, "activity call": "inactive"}
{"target gene": "CDC42BPB (CDC42 binding protein kinase beta)", "viability robust z-score, no drug": 0.408, "activity call": "inactive"}
{"target gene": "AK4 (adenylate kinase 4)", "viability robust z-score, no drug": 0.607, "activity call": "inactive"}

Entries listed so far whose target name starts with A or a (2):
{"target gene": "ALK (ALK receptor tyrosine kinase)", "viability robust z-score, no drug": 0.473, "activity call": "inactive"}
{"target gene": "AK4 (adenylate kinase 4)", "viability robust z-score, no drug": 0.607, "activity call": "inactive"}
